Source: US6780866B2, “Analgesic composition and method” (priority 2001, dated 2004)

Legend:
[1] = test system: formalin-induced inflammatory pain; test: animal or person; type: in vivo, Wistar male rats; conditions: Rattus norvegicus, im, read-out: Inhibition rate (%)
[2] = test system: heat-induced tail-flick (nociceptive pain); test: animal or person; type: in vivo, Kunming mice; conditions: Mus musculus, im
Protocol: 320 screened mice, half male and half female, were randomly divided into 16 groups. They were not given food, only water 12 hours prior to dosing.
The heat tail flick analgesia meter includes a heat source consisting of a 12 V, 50 watt, 8.75 mm projector lamp. The light beam from the heat source was focused and directed to a point on the tail of a mouse being tested, having a distance of 1-2 mm plus ⅓ of the tail length to the tail end.
The test drugs were given intramuscularly. […] The tail-flick latencies, which were assessed in response to a noxious heat stimulus, i.e., the response time from applying radiant heat on the dorsal surface of the tail to the occurrence of tail flick, were measured and recorded at 15, 30, 45, 60, 90, 120, 150, 180 min. after dosing. For each measurement, three readings were made consecutively one minute apart, and their average was recorded as the latency. The testing on one animal would be terminated when tail-flick was not observed within 20 seconds, and the latency would be recorded as 20 seconds. The pain inhibition rate was calculated according to the following formula for the purpose of assessing the analgesia potency: […]
The results were processed with SPSS, a statistical software provided by SPSS, Inc. of Chicago, Ill., USA. Half effective dose (ED50) and half inhibition dose (ID50) were calculated with the probit method.

## CN1CC[C@]23c4c5ccc(O)c4O[C@H]2[C@@H](O)C=C[C@H]3[C@H]1C5.Cl [Morphine, Morphine hydrochloride]
[1]
  inhibition at 0.08 mg/kg: 3.4%
  inhibition at 0.15 mg/kg: 7.2%
  inhibition at 0.3 mg/kg: 10.2%
  inhibition at 0.6 mg/kg: 11%
  inhibition at 2.5 mg/kg: 34.9%
[2]; 0.75 h, read-out: ED50 of morphine
  ED50: 0.41 mg/kg
[2]; read-out: Inhibition rate (%)
  inhibition at 0.01 mg/kg: 13.7%
  inhibition at 0.06 mg/kg: 32.8%
  inhibition at 0.33 mg/kg: 48.1%
